Results are given in words; binding and its absence hold for the method and conditions named. Some entries that bind do so weakly or less than the wild type.
B1: M045 F3 (Fc fusion)
stradomer monomer: DEPRGPTIKPCPPCKCPAPNLLGGPSVFIFPPKIKDVLMISLSPIVTCVVVDVSEDDPDVQISWFVNNVEVHTAQTQTHREDYNSTLRVVSALPIQHQDWMSGKEFKCKVNNKDLPAPIERTISKPKGSVRAPQVYVLPPPEEEMTKKQVTLTCMVTDFMPEDIYVEWTNNGKTELNYKNTEPVLDSDGSYFMYSKLRVEKKNWVERNSYSCSVVHEGLHNHHTTKSFSRTPGKERKCCVECPPCP
B2: M045 F2 (Fc fusion)
stradomer monomer: B1 stradomer monomer
B3: M045c stradomer (Fc fusion)
chain: B1 stradomer monomer
B4: M045 F1 (highest molecular weight multimer fraction of M045c) (Fc fusion)
chain: B1 stradomer monomer
B5: M019 stradomer (Fc fusion)
chain: ERKCCVECPPCPEPRGPTIKPCPPCKCPAPNLLGGPSVFIFPPKIKDVLMISLSPIVTCVVVDVSEDDPDVQISWFVNNVEVHTAQTQTHREDYNSTLRVVSALPIQHQDWMSGKEFKCKVNNKDLPAPIERTISKPKGSVRAPQVYVLPPPEEEMTKKQVTLTCMVTDFMPEDIYVEWTNNGKTELNYKNTEPVLDSDGSYFMYSKLRVEKKNWVERNSYSCSVVHEGLHNHHTTKSFSRTPGK

Protein sequences, listed by entry. Tags and fused reporters are not part of them. Residues count along the entry.
UniProt P08508, residues 31-215: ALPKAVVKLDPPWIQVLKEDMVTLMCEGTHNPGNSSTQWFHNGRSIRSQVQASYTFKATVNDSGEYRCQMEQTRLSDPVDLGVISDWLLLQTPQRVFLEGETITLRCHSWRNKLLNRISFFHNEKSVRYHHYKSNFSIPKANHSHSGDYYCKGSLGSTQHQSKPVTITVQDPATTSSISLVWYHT

Assays:
[1] = biological target: mouse FcγRIIIA (immobilized on CM4 chip) (mouse) (UniProt P08508); experiment: SPR (Biacore) as in Example 4; row 'FcR3a'
[2] = biological target: mouse FcγRIIIA (immobilized on CM4 chip) (mouse) (UniProt P08508); experiment: SPR (Biacore)
[3] = biological target: mouse FcγRIIIA (immobilized on CM4 chip) (mouse) (UniProt P08508); experiment: SPR (Biacore T100), receptor amine-coupled to CM4 chip, analyte 500 nM to 1.9 nM
[4] = biological target: mouse FcγRIIIA (immobilized on CM4 chip) (mouse) (UniProt P08508); experiment: SPR (Biacore), receptor amine-coupled to CM4 chip

| Binder | binding [1] | binding [2] | binding [3] | binding [4] |
| --- | --- | --- | --- | --- |
| B1 | binds | – | – | – |
| B2 | binds | – | – | – |
| B3 | binds | binds | binds | – |
| B4 | binds | – | – | binds |
| B5 | – | binds | binds | – |
